From patent EP0247971A2, “Novel pharmaceutical compositions comprising and use of cis-6-(4-acetanilido)-8,9-dimethoxy-2-methyl-1,2,3,4,4a,10b-hexahydrobenzo[c][1,6]naphthyridin” (SANDOZ AG, priority 1986, dated 1987)
At least one structure is not confirmed: it was looked up by name or label, or the drawing left a doubt.

How the values were obtained:
Format in all cases: in vivo
rabbit = assay: Toxicological studies in animals, rabbit
rat = assay: Toxicological studies in animals, rat
mouse = assay: Toxicological studies in animals, mouse

## COc1cc2c(cc1OC)[C@@H]1CN(C)CC[C@@H]1N=C2c1ccc(NC(C)=O)cc1 (racemic) [(±)-COMPOUND, cis-6-(4-acetanilido)-8,9-dimethoxy-2-methyl-1,2,3,4,4a,10b-hexahydrobenzo[c][1,6]naphthyridin]
rabbit; i.v. administration
  ED50 values: 108 mg/kg
rabbit; oral administration
  ED50 values: 423 mg/kg
rat; i.v. administration
  ED50 values: 224 mg/kg
rat; oral administration
  ED50 values: 1091 mg/kg
mouse; i.v. administration
  ED50 values: 163 mg/kg
mouse; oral administration
  ED50 values: 2433 mg/kg
